# From publication PMC7819943, “Rice protein-binding microarrays: a tool to detect cis-acting elements near promoter regions in rice”
# Chains of the proteins cited; added tags and fusions are not shown.
# UniProt Q0JBA9, entry or part of it: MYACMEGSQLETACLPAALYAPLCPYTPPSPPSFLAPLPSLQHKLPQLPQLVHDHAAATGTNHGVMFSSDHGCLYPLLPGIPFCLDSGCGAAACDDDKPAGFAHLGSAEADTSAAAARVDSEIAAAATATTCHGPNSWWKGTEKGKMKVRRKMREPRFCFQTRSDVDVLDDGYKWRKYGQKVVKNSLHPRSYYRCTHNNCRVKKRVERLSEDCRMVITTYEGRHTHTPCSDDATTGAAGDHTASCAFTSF
# This is one part of the list.
# Target: OsWRKY34 (Oryza sativa, UniProt Q0JBA9 1-250)
# Assay: protein-binding microarray (RPBM); PBS, 2% BSA, 51.3 ng/ul salmon testes DNA, 50 uM zinc acetate, 200 nM TF, 25 C, 1 h; high values mean tight binding
# Conditions: protein: recombinant; tags: N-terminal polyhistidine and DsRed monomer fusion (pET32a); label: CyDye5-dUTP incorporated in the synthesized complementary strand; 3' TTTTT single-stranded linker to array surface; dsDNA, one strand shown
# Procedure, shortened: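 The binding signal is fluorescence intensity per feature, in arbitrary units, read on an Axon 4000B scanner. Polyhistidine- and DsRed-tagged transcription factors (N-terminal fusions) from E. coli BL21-CodonPlus were purified on Ni–NTA and applied at 200 nM for 1 h at 25 °C to a double-stranded, BSA-blocked custom Agilent array in buffer with 50 µM zinc acetate.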
row,Sequence,binding signal
1,CTTCCACACACACCTAACCTCAGTGCTCCCTCGGTAATTGCGGAGTCACCTAGTGCAG,9540 fluorescence intensity (a.u.)
2,AGAGAGAGAGGGGAGGGCAGCAGAAGGGGAGCGGCGAAGCCGGAGTCACCTAGTGCAG,9400 ± 875 fluorescence intensity (a.u.)
3,GAAGAGTTGGTTATATTTCCGGTTGTGTGTGTTTTGCCCCCGGAGTCACCTAGTGCAG,8290 fluorescence intensity (a.u.)
4,CTGACCAAAATGTTCGTTCTACACTCCACATAGTTTTTCTCGGAGTCACCTAGTGCAG,9930 fluorescence intensity (a.u.)
5,TGGTGGAGGAGGAGATTAGGGTTTGATTAGGGTAGATAGACGGAGTCACCTAGTGCAG,8770 fluorescence intensity (a.u.)
6,ATGTGTGTGTGTGTGTGTGTCGCTGTACTGCCTTCCGTCTCGGAGTCACCTAGTGCAG,13900 fluorescence intensity (a.u.)
7,GGGTGACGGGAGCAGCGGCGCGCGGGTGGTGGGGCTTGGACGGAGTCACCTAGTGCAG,10700 fluorescence intensity (a.u.)
8,TACACACACGCACGAGCCCACACACACACTAGCATATTGACGGAGTCACCTAGTGCAG,12000 fluorescence intensity (a.u.)
9,AATCATGTGCTAATAATCACCCGTTTACTTATTTTTTATGCGGAGTCACCTAGTGCAG,10800 fluorescence intensity (a.u.)
10,TCACATGTCTTTGTACTATTTCCTTATTAATTCTTAAAAGCGGAGTCACCTAGTGCAG,9080 fluorescence intensity (a.u.)
11,ACCTCTAGTATATAGCTGACACGATGACTACTCTGCTTCTCGGAGTCACCTAGTGCAG,10900 fluorescence intensity (a.u.)
12,TATATATATGTGTGTGTGTGTGTGTGTGTGTGTGTGTGTGCGGAGTCACCTAGTGCAG,10100 fluorescence intensity (a.u.)
13,TAAAATACTGGCTGGTCTCGATCACATATCACCTGGCACTCGGAGTCACCTAGTGCAG,8360 fluorescence intensity (a.u.)
14,GCACTGGACTGCACGCTAACTCTCTAGTTTGTTTGTCACTCGGAGTCACCTAGTGCAG,9010 fluorescence intensity (a.u.)
15,ATTCTTCACCCTTTATCAGTTCACCTGTCATTTGACTCCCCGGAGTCACCTAGTGCAG,8760 fluorescence intensity (a.u.)
16,CGTATACCTCGGAGAAGTTCTCATCCGCTGACGTGTCCCGCGGAGTCACCTAGTGCAG,19600 fluorescence intensity (a.u.)
17,CTCCATTTCCTCCTCAGCACCTCAAGCTTTATATTTATCCCGGAGTCACCTAGTGCAG,8150 fluorescence intensity (a.u.)
18,ATCAATTGCGACTCCAGAACCTTCTCTTCTTCCTTGTTCGCGGAGTCACCTAGTGCAG,10900 fluorescence intensity (a.u.)
19,CACCCGCCGCCGCCGCCTGCGCTGCCCCGCCGATCACCGTCGGAGTCACCTAGTGCAG,9880 fluorescence intensity (a.u.)
20,TGGCCACTTGATCTGTACTTTGGCTTTGGCTTTCACTGCCCGGAGTCACCTAGTGCAG,8940 fluorescence intensity (a.u.)
21,TTTTTGTCACTGTTTGTCTAATATTGCAATTCTCATCTCGCGGAGTCACCTAGTGCAG,9190 fluorescence intensity (a.u.)

row,Sequence,binding signal
1,CTGGTAGGATTGCTGCTTGCTTTGCCTTCACGTCATTATCCGGAGTCACCTAGTGCAG,11200 fluorescence intensity (a.u.)
2,CCTGTTACTATTCACCTGAAATTTGTCTTTTTTGTTACTCCGGAGTCACCTAGTGCAG,9320 fluorescence intensity (a.u.)
3,ATTACTTGCCAGTTAGCCACACGCCCACACCCTCCTACTTCGGAGTCACCTAGTGCAG,8460 fluorescence intensity (a.u.)
4,ACTCGCTCCGCCCACCACCACCACCCGCCGCCGCCGCCGCCGGAGTCACCTAGTGCAG,8580 fluorescence intensity (a.u.)
5,ACACACCCTTCATATAAAGCCATATATATCTTTTATTCTCCGGAGTCACCTAGTGCAG,8320 fluorescence intensity (a.u.)
6,GATGTCATATATCTGGTTTTGTGGTTGGGGTCAATGACAACGGAGTCACCTAGTGCAG,15200 fluorescence intensity (a.u.)
7,ACGTGCCGCCCGCCGTGCGCCGTTGACCCCGCCACCCGCCCGGAGTCACCTAGTGCAG,12200 fluorescence intensity (a.u.)
8,GGTGGGCGGAGTGGGAGGGGAGGCATCGGCGCCTCGGTGGCGGAGTCACCTAGTGCAG,16800 fluorescence intensity (a.u.)
9,TTTTTATACTGTTGGTACATATTCAAATTTGTCAAACATTCGGAGTCACCTAGTGCAG,8960 fluorescence intensity (a.u.)
10,CGCCTCCATGGTTTTGCGACTTTGCCGTCATTGCTTGATACGGAGTCACCTAGTGCAG,8840 fluorescence intensity (a.u.)
11,CCATATATGCTAGGTCAGGCCAATGACTCCATCCTTCTTTCGGAGTCACCTAGTGCAG,8020 fluorescence intensity (a.u.)
12,GTTGTCGAGCCGTGTCAAGCCACCAATGATCTTTGACTAACGGAGTCACCTAGTGCAG,8120 fluorescence intensity (a.u.)
13,TGGATAGCGCTTGTGGTGTGGGCAGGGTTTACACAGATACCGGAGTCACCTAGTGCAG,8400 fluorescence intensity (a.u.)
14,GATGACAAGTTGAGAGACCTTCCGTGTACTTTTTCCAATTCGGAGTCACCTAGTGCAG,9990 fluorescence intensity (a.u.)
15,CCAATTCAATTGCATACACCCCTTGCACCTCTCTCACACCCGGAGTCACCTAGTGCAG,8020 fluorescence intensity (a.u.)
16,ATGCTCATTCTCTCAGACTGTGTCTCCACCACTGTGCTCACGGAGTCACCTAGTGCAG,9320 fluorescence intensity (a.u.)
17,TTTTTCTCCCCAGATTGCTGTGCACGGATTTGCCGTAAGACGGAGTCACCTAGTGCAG,8360 fluorescence intensity (a.u.)
18,CAATCACCCCAACCGCCTCACTCCTTCGCCGCCACTCCACCGGAGTCACCTAGTGCAG,8060 fluorescence intensity (a.u.)
19,TGGGGTCCCACGCTGATTCAGCCGTCACGTAGACCAAAATCGGAGTCACCTAGTGCAG,8890 fluorescence intensity (a.u.)
20,CCGTACTCTGATACTTCCCGTGTTACGCCTGTCACAGCTTCGGAGTCACCTAGTGCAG,8160 fluorescence intensity (a.u.)
21,CACCCTGACCGTCCTGTCCGCCGAGCCGCTGCACACCAGCCGGAGTCACCTAGTGCAG,8640 fluorescence intensity (a.u.)

# Exported tab-delimited: part of the list above
row	Sequence	binding signal
1	CTGGTAGGATTGCTGCTTGCTTTGCCTTCACGTCATTATCCGGAGTCACCTAGTGCAG	11200 fluorescence intensity (a.u.)
2	CCTGTTACTATTCACCTGAAATTTGTCTTTTTTGTTACTCCGGAGTCACCTAGTGCAG	9320 fluorescence intensity (a.u.)
3	ATTACTTGCCAGTTAGCCACACGCCCACACCCTCCTACTTCGGAGTCACCTAGTGCAG	8460 fluorescence intensity (a.u.)
